# Reference: PubChem BioAssay AID1347075 (National Center for Advancing Translational Sciences (NCATS), 2019)
# In all, about 400,000 compounds went through this assay and about 5,500 (1.4%) were called active. The shares of active, inactive and inconclusive entries below differ from those in the screen. Calls come from the whole dose curve; as a rule, active = well fitted cell-killing curve with a large enough effect; inconclusive = small, poorly fitted or top-dose-only effect, or effect the other way; inactive = flat fitted curve, though single readings scatter. Potencies of inconclusive entries are doubtful fits and often do not repeat.
# Test: qHTS assay for MDR1-selective chemotherapeutics: Primary screen using the parental adenocarcinoma cell KB-3-1; note: nearly all actives have a fitted effect of over 60% in size
# Conditions: KB-3-1 viability, CellTiter-Glo ATP luminescence, 72 h; activity change, negative = cytotoxic: at 46.1 µM (top of the series)
# Procedure, shortened: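 Luminescent ATP read-out (CellTiter-Glo) measures survival of drug-naive KB-3-1 cells after 72 h compound exposure at 37 °C. Titration series was screened from lowest to highest concentration, with DMSO vehicle plates as background controls.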
# % is set by controls: 0 for no effect and ±100 for the full control effect; potency is the fitted concentration of half-maximal effect.
Compound,Potency,"activity change, negative = cytotoxic"
FC(F)(F)c1cccc(-c2nc3ccccc3n2C(c2ccccc2)c2nc3ccccc3[nH]2)c1 (stereo not given),"inconclusive: 18.4 µM [cytotoxic, single point]",
COC(=O)c1ccc(OCCCCN(C)Cc2ccccc2)cc1,"inconclusive: 11.6 µM [cytotoxic, partial curve]",
CN(C)c1ccc(/C=C(/C(=O)c2ccc(Cl)cc2Cl)n2cncn2)cc1,active: 23.1 µM,
CC(C)Oc1ccc(CCN=C(N)N=C(N)N)cc1Cl,"inconclusive: 29.1 µM [cytotoxic, single point]",
COCCNC(=O)C1(C)CCCN(Cc2ccccc2N(C)C)C1 (stereo not given),inactive,
COc1cccc(-c2noc(COc3ccccc3Cl)n2)c1,inactive,
Cn1nc(C(F)(F)F)c2cc(NC(=O)OCc3ccc(F)cc3)sc21,inactive,
CCNC(=S)NNC(=O)c1ccc(OC)cc1,"inconclusive: 23.1 µM [cytotoxic, single point]",
CC(C)CC1C(=O)N2CCC[C@H]2[C@]2(O)O[C@](NC(=O)[C@@H]3C=C4c5cccc6[nH]c(Br)c(c56)C[C@H]4N(C)C3)(C(C)C)C(=O)N12 (stereo not given in full),"inconclusive: 16.4 µM [cytotoxic, single point]",
NC(N)=Nc1nc(-c2ccccc2)c2ccccc2n1,"inconclusive: 18.4 µM [cytotoxic, single point]",
Cc1c(=O)n(OCc2cccc(F)c2)c2ccccc2[n+]1[O-],inactive,
Cc1ccccc1-c1cc2nc(-c3ccc([N+](=O)[O-])cc3)cc(=O)n2[nH]1,inactive,
COc1cccc(NC(=O)CN(C)C(=O)c2cc3c(s2)CCC3)c1,inactive,
CC1C(=O)N2CCCc3cc(S(=O)(=O)N4CCC(C(N)=O)CC4)cc1c32 (stereo not given),,inconclusive: -39.3%
CCCSCCCNC(=O)c1ccc2c(c1)sc1nc(-c3ccc(OCC)cc3)cn12,inactive,
CCN(CC)CCCNC(=O)CC1Oc2ccc(C)cc2NC1=O (stereo not given),,inconclusive: 0.16%
CN(C(=O)CSc1ncnc2sc3c(c12)CCCC3)C1CCS(=O)(=O)C1 (stereo not given),inactive,
COc1cc(-c2cc(C(=O)N(C)Cc3ccccc3)c3ccccc3n2)cc(OC)c1OC,"inconclusive: 29.1 µM [cytotoxic, single point]",
CC(NC(=O)CSc1ccc(S(=O)(=O)N2CCOCC2)cn1)c1ccc(Cl)cc1Cl (stereo not given),inactive,
COc1ccccc1Nc1nn2c(=O)c3ccc(C(=O)NCCC4=CCCCC4)cc3nc2s1,"inconclusive: 14.6 µM [cytotoxic, partial curve]",
Cc1onc(-c2ccccc2)c1C(=O)OCC(=O)c1ccccc1,"inconclusive: 14.6 µM [cytotoxic, partial curve, poor fit]",
O=C(NCc1ccccc1F)C1CCN(c2nn3cc(-c4ccc(F)cc4)nc3s2)CC1,inactive,
CCOC(=O)C(C)Oc1cccc2c(=O)n(CC(=O)NCCc3ccccc3)ccc12 (stereo not given),inactive,
N#Cc1cc2c(nc1SCc1cccnc1)CCCCC2,"inconclusive: 20.6 µM [cytotoxic, single point]",

Compound,Potency,"activity change, negative = cytotoxic"
Cc1cccc(NC2=NC3(CCCCC3)N=C(N)N2)c1,"inconclusive: 18.4 µM [cytotoxic, single point]",
Cc1cccc2c(C(=O)N3CCN(C(=O)c4ccco4)CC3)cc(-c3cccc(Br)c3)nc12,"inconclusive: 18.4 µM [cytotoxic, single point]",
COc1ccc(C)cc1NC(=O)C(Cc1ccccc1)NS(=O)(=O)c1cccs1 (stereo not given),inactive,
Cc1ccc(NC(=O)CSc2n[nH]c(-c3ccncc3)n2)c(C)c1,"inconclusive: 6.51 µM [rising, partial curve]",
O=C(CC1(O)C(=O)N(C/C=C/c2ccccc2)c2ccccc21)c1ccccn1 (stereo not given),"inconclusive: 35.5 µM [cytotoxic, single point]",
COc1ccc(OCC(=O)NNc2c3ccccc3nc3ccccc23)cc1,"inconclusive: 23.1 µM [cytotoxic, single point]",
CCCCN1C(=O)c2ccc(C(=O)NCCN3C(=O)S/C(=C\c4cccnc4)C3=O)cc2C1=O,"inconclusive: 23.1 µM [rising, partial curve, poor fit]",
COc1ccc(-n2c(O)c(C=Nc3ccccc3)c3ccccc3c2=O)cc1,"inconclusive: 29.1 µM [cytotoxic, single point]",
Cc1cccc(NS(=O)(=O)c2ccc(C3CCCCC3)cc2)c1,"inconclusive: 20.6 µM [cytotoxic, single point]",
O=C(NNC(=O)c1ccccc1O)c1ccc(NS(=O)(=O)c2ccc(F)c(F)c2)cc1,"inconclusive: 29.1 µM [cytotoxic, single point]",
CCc1cccc2c(C(=O)CN3C(=O)NC(C)(c4cccc5ccccc45)C3=O)c[nH]c12 (stereo not given),"inconclusive: 29.1 µM [cytotoxic, single point]",
O=c1c2ccccc2sn1-c1ccc(S(=O)(=O)N2CCOCC2)cc1,inactive,
Cc1n(CC(=O)c2ccc(F)cc2)c2ccccc2[n+]1C,"inconclusive: 23.1 µM [cytotoxic, partial curve]",
CCOC(=O)c1cc2nc(-c3ccco3)cc(C(F)(F)F)n2n1,"inconclusive: 8.2 µM [rising, partial curve, poor fit]",
CCSc1nnc2ccc(-c3cccs3)nn12,,inconclusive: -13.7%
Cc1ccc(-c2cc(C(=O)N/N=C/c3ccc(F)cc3)n[nH]2)o1,inactive,
O=C(COc1ccc(C(=O)NCc2cccnc2)cc1)Nc1cccc(C(F)(F)F)c1,"inconclusive: 29.1 µM [cytotoxic, single point]",
CC1CCC(NC(=O)CN2C(=O)NC3(CCCCCC3)C2=O)CC1 (stereo not given),"inconclusive: 0.058 µM [cytotoxic, full curve, poor fit]",
Cc1c(-c2cccs2)[n+](=O)c2c(n1[O-])CCCC2,inactive,
O=S(=O)(NCC(c1ccco1)N1CCc2ccccc2C1)c1ccc(Br)cc1 (stereo not given),inactive,
Cc1ccccc1Nc1nc(N)nc(COC(=O)[C@@H](NC(=O)c2ccccc2Cl)C(C)C)n1,"inconclusive: 13 µM [rising, single point]",
COc1ccc(Nc2c3c(nc4ccc(NC(=O)c5cc(Cl)ccc5OC)cc24)CCCC3)cc1OC,"inconclusive: 25.9 µM [cytotoxic, partial curve, poor fit]",
Cc1cc(C)cc(NC(=O)N2CCC(N3CCN(Cc4ccccc4)C(=O)C3=O)CC2)c1,inactive,
Cc1nnc(N2CCN(c3cccc(C(F)(F)F)c3)CC2)c2c1nnn2Cc1ccccc1,inactive,

# Fetched by structure from the list above (4):
Compound,Potency,"activity change, negative = cytotoxic"
CC1CCC(NC(=O)CN2C(=O)NC3(CCCCCC3)C2=O)CC1 (stereo not given),"inconclusive: 0.058 µM [cytotoxic, full curve, poor fit]",
COC(=O)c1ccc(OCCCCN(C)Cc2ccccc2)cc1,"inconclusive: 11.6 µM [cytotoxic, partial curve]",
CC(NC(=O)CSc1ccc(S(=O)(=O)N2CCOCC2)cn1)c1ccc(Cl)cc1Cl (stereo not given),inactive,
Cc1cccc(NS(=O)(=O)c2ccc(C3CCCCC3)cc2)c1,"inconclusive: 20.6 µM [cytotoxic, single point]",

# The list continues:

Compound,Potency,"activity change, negative = cytotoxic"
C[C@H](CO)N1C[C@H](C)[C@@H](CN(C)Cc2ccc(Cl)c(Cl)c2)Oc2c(NC(=O)Cc3ccccc3)cccc2C1=O,"inconclusive: 29.1 µM [cytotoxic, single point]",
O=C(O)/C=C/C(=O)NCCC(c1ccccc1)c1ccccc1,inactive,
NC(=O)c1cc2ccccc2o/c1=N\NC(=O)c1ccc(F)cc1,inactive,
CCN1CCN(c2ccc(NC(=O)COc3ccc(Cl)cc3C)cc2)CC1,"inconclusive: 23.1 µM [cytotoxic, single point]",
COc1ccc(CN2C(=O)Cc3c2nc(N)c2c(N)nc(N4CCOCC4)c(C#N)c32)cc1,"inconclusive: 29.1 µM [cytotoxic, single point]",
O=C(CNC(=O)c1ccc2c(c1)OCO2)N/N=C/c1cc(Br)ccc1O,,inconclusive: -30.6% [cytotoxic]
O=C(CSc1nc2c(c(=O)n1-c1ccc(F)cc1)SCC2)N1CCCC1,,inconclusive: 5.3%
C[C@H](NC(=O)c1[nH]cnc1C(=O)Nc1ccccc1)c1ccccc1,"inconclusive: 29.1 µM [cytotoxic, single point]",
O=c1n(-c2ccccc2)c(=O)n2n1CCCC2,inactive,
COc1ccccc1S(=O)(=O)N(C)C[C@H]1Oc2ncc(Br)cc2C(=O)N([C@H](C)CO)C[C@H]1C,,inconclusive: 30.1%
O=C(NC(=S)N1CCN(C2CCCCC2)CC1)c1ccccc1,inactive,
CCCCn1nc2cc(C(=O)NCc3ccc(OC)cc3)ccc2c1OCC,"inconclusive: 25.9 µM [rising, single point]",
Cc1nc(NC(C)C)c2oc3ccccc3c2n1,inactive,
CC(=O)Nc1cc(-c2cccc(C(=O)NCCN(C)C)c2)cn2c(-c3ccc(C(C)=O)cc3)cnc12,"inconclusive: 25.9 µM [cytotoxic, single point]",
Cc1ccccc1-c1nnc(NC(=O)Nc2ccc3ccccc3c2)s1,"inconclusive: 25.9 µM [cytotoxic, single point]",
CCCCCN(C(=O)CCC(=O)OCc1ccc(C(C)C)cc1)c1c(N)n(CCCC)c(=O)[nH]c1=O,inactive,
CCc1cccc2c(C(=O)CN3C(=O)NC4(CCc5ccccc54)C3=O)c[nH]c12 (stereo not given),"inconclusive: 29.1 µM [cytotoxic, single point]",
CC/C(=C/c1ccccc1)c1cccc2[nH]c3c(OC)cccc3c12,"inconclusive: 23.1 µM [cytotoxic, single point]",
Clc1ccccc1-c1nnc(SCc2nc(-c3ccccc3)no2)n1-c1ccccc1,"inconclusive: 16.4 µM [cytotoxic, single point]",
CCOC(=O)c1ccc(NC(=O)c2nc[nH]c2C(=O)N[C@@H](CCCCNC(=O)OC(C)(C)C)C(=O)OC(C)(C)C)cc1,"inconclusive: 16.4 µM [cytotoxic, single point]",
[O-][n+]1c2ccccc2c2n1CCN1CCOC21c1ccc(Cl)cc1 (stereo not given),"inconclusive: 25.9 µM [cytotoxic, partial curve, poor fit]",
CC[n+]1c(C=C2C=C(C)OC(C)=C2)sc2ccccc21,"inconclusive: 29.1 µM [cytotoxic, partial curve, poor fit]",
